According to the supplement of paper PMC10689618:
Counter-ions that a name gives are not always drawn. This is one part of the list. Many values rest on one well or one pass, so single values are uncertain.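 Primary human fetal astrocytes engulfed labelled rat cortical synaptosomes, measured as a red/green ratio corrected for calcein live-cell signal and scaled to the plate median. Toxicity meant calcein falling over 30%; decreased phagocytosis meant below 70% of median above 5 µM.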

How the values were obtained:
Human fetal astrocytes [1] = assay: loss of total cells relative to no-compound high-control median (toxicity); higher = more toxic (fewer cells); settings: 24 h
Human fetal astrocytes [2] = assay: synaptosome phagocytosis (pHrodo/calcein intensity ratio) relative to plate median of data wells; higher = more phagocytosis; settings: 24 h

SMILES	loss of total cells (Human fetal astrocytes [1]; 1.39 µM) [%]	loss of total cells (Human fetal astrocytes [1]; 2.78 µM) [%]	loss of total cells (Human fetal astrocytes [1]; 5.56 µM) [%]	loss of total cells (Human fetal astrocytes [1]; 11.11 µM) [%]	loss of total cells (Human fetal astrocytes [1]; 22.22 µM) [%]	synaptosome phagocytosis (Human fetal astrocytes [2]; 1.39 µM) [%]	synaptosome phagocytosis (Human fetal astrocytes [2]; 2.78 µM) [%]	synaptosome phagocytosis (Human fetal astrocytes [2]; 5.56 µM) [%]	synaptosome phagocytosis (Human fetal astrocytes [2]; 11.11 µM) [%]	synaptosome phagocytosis (Human fetal astrocytes [2]; 22.22 µM) [%]
O=C(O)c1cc(=O)cc(C(=O)O)[nH]1 [Chelidamic acid]	-16.1	-18.6	-18.9	-16.6	-1.1	99.5	82.6	84.6	116	76.6
C1COC(NC(C2CC2)C2CC2)=N1 [Rilmenidine hemifumarate]	-20.2	-25.4	-1.7	-23.4	-11.5	98.8	105	118	116	82.8
O=c1ccn([C@@H]2O[C@H](COP(=O)(O)OP(=O)(O)O)[C@@H](O)[C@H]2O)c(=O)[nH]1 [Uridine 5'-diphosphate sodium]	-12.7	-23.1	-6.7	-21.1	-26.3	111	111	116	94.9	117
C[C@]12C=CC(=O)C=C1CC[C@@H]1C2=CC[C@]2(C)[C@@H](C(=O)CN3CCN(c4cc(N5CCCC5)nc(N5CCCC5)n4)CC3)CC[C@@H]12	-2.2	-12.3	-3.4	-3.4	-22.2	86.2	96	74.2	91.5	103
COc1cc(/C=C(\C#N)C(=O)c2ccc(O)c(O)c2)cc(I)c1O [I-OMe-Tyrphostin AG 538]	-11.5	-15.9	2.2	-24.9	0.8	95.3	111	116	126	108
N[C@H](C(=O)O)[C@H]1C[C@@H]1C(=O)O [(2S,1'S,2'S)-2-(carboxycyclopropyl)glycine]	-6.3	-14.5	-2.5	-3.1	0	104	90.9	118	118	99.1
CCCCCCCC/C=C\CCCCCCCC(=O)O [Oleic Acid]	6.2	20.4	26.8	-2.9	16.8	101	157	136	147	116
CCCCC1(C2CCCC2)Cc2cc(OCC(=O)O)c(Cl)c(Cl)c2C1=O (stereo in doubt) [R(+)-Butylindazone]	-2.1	-7.7	-7.4	-18.4	1.6	86.7	98.8	118	108	115
C#CCn1c(=O)c2c(ncn2C)n(C)c1=O [3,7-Dimethyl-I-propargylxanthine]	-0.4	-14.5	-4.9	-15.7	-2.4	104	107	103	118	109
COC(=O)[C@@H](N)Cc1ccc(O)c(O)c1 [L-3,4-Dihydroxyphenylalanine methyl ester hydrochloride]	12.1	-8.5	-12.3	5.8	0.8	110	90.2	93.2	131	121
Nc1ncnc2c1ncn2[C@@H]1O[C@H](COP(=O)(O)CP(=O)(O)OP(=O)(O)O)[C@H](O)C1O (stereo partly drawn) [alpha,beta-Methylene adenosine 5'-triphosphate dilithium]	-18.5	17.6	9.9	1.9	2.8	109	74.7	120	104	125
O=C(O)CCC(=O)N1CCC[C@H]1C(=O)O [N-Succinyl-L-proline]	-5.9	-12.9	-14.6	-27.2	-42.8	91.9	75.1	86.3	100	94.6
Cc1c(C)c2c(c(C)c1O)CCC(C)(CN1CCN(c3cc(N4CCCC4)nc(N4CCCC4)n3)CC1)O2 (stereo not given)	-32.6	-29.6	-0.6	38.7	49.4	90.2	99.9	81.4	11.1	25.2
CC(C)C[C@H](NC(=O)[C@@H](O)[C@H](N)Cc1ccccc1)C(=O)O [Bestatin hydrochloride]	-13.9	-16.5	-26.3	-20.2	3.4	130	88	72.7	98.6	94
O=C(O)CCC/C=C\C[C@@H]1[C@@H](/C=C/[C@H](O)C2Cc3ccccc3C2)[C@@H](F)C[C@@H]1O	-14.7	-17.1	-18	-11.2	1.1	125	102	109	104	107
CC(=O)S[C@@H]1CC2=CC(=O)CC[C@]2(C)[C@H]2CC[C@@]3(C)[C@@H](CC[C@@]34CCC(=O)O4)[C@H]12 [Spironolactone]	-27.6	-28.4	-15.2	-21.8	-28	79.9	80.7	87.7	125	90.3
CC(C)C(=O)Nc1ccc([N+](=O)[O-])c(C(F)(F)F)c1 [Flutamide]	-17.2	-8.5	-17.3	-8.5	-1.6	103	104	107	97.8	107
FC(F)(F)c1cc(COC2CCCNC2c2ccccc2)cc(C(F)(F)F)c1 [L-733,060 hydrochloride]	-17.5	-14	18.3	18.1	38.3	105	114	122	76.7	70
N[C@@H](Cc1c[nH]c2ccccc12)C(=O)O [L-Tryptophan]	-29.5	-15.3	6.2	-33.3	-17.3	114	98.8	98.5	106	82.4

Complete entries as entered above. Values in the order: loss of total cells (Human fetal astrocytes [1]; 1.39 µM) [%] | loss of total cells (Human fetal astrocytes [1]; 2.78 µM) [%] | loss of total cells (Human fetal astrocytes [1]; 5.56 µM) [%] | loss of total cells (Human fetal astrocytes [1]; 11.11 µM) [%] | loss of total cells (Human fetal astrocytes [1]; 22.22 µM) [%] | synaptosome phagocytosis (Human fetal astrocytes [2]; 1.39 µM) [%] | synaptosome phagocytosis (Human fetal astrocytes [2]; 2.78 µM) [%] | synaptosome phagocytosis (Human fetal astrocytes [2]; 5.56 µM) [%] | synaptosome phagocytosis (Human fetal astrocytes [2]; 11.11 µM) [%] | synaptosome phagocytosis (Human fetal astrocytes [2]; 22.22 µM) [%]
CC(=O)S[C@@H]1CC2=CC(=O)CC[C@]2(C)[C@H]2CC[C@@]3(C)[C@@H](CC[C@@]34CCC(=O)O4)[C@H]12 [Spironolactone] in the list: -27.6 | -28.4 | -15.2 | -21.8 | -28 | 79.9 | 80.7 | 87.7 | 125 | 90.3
C#CCn1c(=O)c2c(ncn2C)n(C)c1=O [3,7-Dimethyl-I-propargylxanthine] in the list: -0.4 | -14.5 | -4.9 | -15.7 | -2.4 | 104 | 107 | 103 | 118 | 109

Next compounds follow:

SMILES	loss of total cells (Human fetal astrocytes [1]; 1.39 µM) [%]	loss of total cells (Human fetal astrocytes [1]; 2.78 µM) [%]	loss of total cells (Human fetal astrocytes [1]; 5.56 µM) [%]	loss of total cells (Human fetal astrocytes [1]; 11.11 µM) [%]	loss of total cells (Human fetal astrocytes [1]; 22.22 µM) [%]	synaptosome phagocytosis (Human fetal astrocytes [2]; 1.39 µM) [%]	synaptosome phagocytosis (Human fetal astrocytes [2]; 2.78 µM) [%]	synaptosome phagocytosis (Human fetal astrocytes [2]; 5.56 µM) [%]	synaptosome phagocytosis (Human fetal astrocytes [2]; 11.11 µM) [%]	synaptosome phagocytosis (Human fetal astrocytes [2]; 22.22 µM) [%]
CCn1ccnc1CC1COc2ccccc2O1 (stereo not given) [Imiloxan hydrochloride]	-16.6	8.6	0.5	14.3	13.1	78.2	57.3	66.9	113	68.6
CNCCC(Oc1ccccc1OC)c1ccccc1 (stereo not given) [Nisoxetine hydrochloride]	-18.5	-12.2	1.4	18.1	17.8	106	76.8	112	94	120
Cn1ccnc1 [1-Methylimidazole]	-9	29.4	1.4	9.5	9.3	95.9	109	104	101	92.7
CO/N=C(\C(=O)N[C@@H]1C(=O)N2C(C(=O)O)=C(CSc3nc(=O)c(O)nn3C)CS[C@H]12)c1csc(N)n1 [Ceftriaxone sodium]	-14.7	-13.8	-28.1	-12.1	11.7	84.5	107	99.6	116	92.6
CC(=O)O[C@]1(C(C)=O)CC[C@H]2[C@@H]3C=C(Cl)C4=CC(=O)[C@@H]5C[C@@H]5[C@]4(C)[C@H]3CC[C@@]21C [Cyproterone acetate]	-1.5	7.2	-16.1	-17.5	-7.1	151	113	107	94.3	109
Nn1nnc2ccccc21 [1-Aminobenzotriazole]	-9.5	-4.5	-14.3	7.6	5.6	103	99	102	77.5	111
CCCCCCCCCC[Si](C)(C)CCC(=O)NC(Cc1ccc(C)cc1)c1ccccc1 (stereo not given) [Sandoz 58-035]	-11.4	-18.3	-15.2	-15.7	6.4	84.4	62.8	89.2	93.1	85.1
CN(CCOc1ccc(C[C@H](Nc2ccccc2C(=O)c2ccccc2)C(=O)O)cc1)c1ccccn1	9.6	-24.8	0	-19.3	-20	90.5	136	137	124	102
CNC(=N)NCCC[C@H](N)C(=O)O [NG-Monomethyl-L-arginine acetate]	-12.8	-20.4	-6.1	1.9	-6.5	89	100	118	100	132
C[C@]12CC[C@@H]3c4ccc(O)cc4CC[C@H]3[C@@H]1CC[C@@H]2O [beta-Estradiol]	10.5	-29.9	-9.9	-14.8	3.2	102	83.9	94.1	110	89.9
N[C@@H](Cc1ccc(O)c(I)c1)C(=O)O [3-Iodo-L-tyrosine]	-2.4	13.1	14.6	1.9	15.9	109	92.5	117	104	140
c1ccc(CN2CCC3(CCCc4ccccc43)CC2)cc1 [L-687,384 hydrochloride]	-6.2	6.8	-5.2	4.8	7.5	104	89.5	46.6	72.7	85.2
O=S(=O)(c1cccc2cnccc12)N1CCNCC1	4.6	-13.7	-7.4	-15.7	-10.4	109	78.4	84.9	96.3	89.4
O=C(O)/C=C/c1cnc[nH]1 [4-Imidazoleacrylic acid]	-17.1	-35.6	7.9	-27.2	-30.5	87.3	123	93.6	136	125
CC1CNCCN1S(=O)(=O)c1cccc2cnccc12 (stereo not given) [H-7 dihydrochloride]	-10.5	-23.9	-6.6	-4	-4	98.1	96.1	77.2	94.2	66.5
N#C/C(=C/c1ccc(O)c(O)c1)C(=O)N1CCc2ccccc21 [Tyrphostin AG 528]	-12.7	-10.5	-6.7	-11.9	-18.9	117	109	95.5	81.6	87.6
COc1cc2c(cc1O)CC[C@@H]1[C@@H]2CC[C@]2(C)[C@@H](O)CC[C@@H]12 [2-methoxyestradiol]	-1.4	12.2	-10.8	0	-0.9	90.3	93.3	89.5	88.2	90.3
CC(=O)N1CCN(c2ccc(OCC3COC(Cn4ccnc4)(c4ccc(Cl)cc4Cl)O3)cc2)CC1 (stereo not given) [Ketoconazole]	4.3	-4.1	-3.3	20	32.7	96.5	96	117	102	88.4
O=C(O)C1(C(=O)O)CCC1.[NH2-].[NH2-].[Pt+2] [Carboplatin]	-23.5	-9	-2.3	-7.6	-10.9	92.2	103	83.8	92.2	91
